# Reference: PubChem BioAssay AID504775 (Broad Institute, 2011)
# In all, about 320,000 compounds went through this assay and about 310 (0.097%) were called active. Inconclusive means that the source gave no clear call. Such entries were picked first, then a sample of the others.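 The calls were made as follows: active = mean replicate activation of at least 60% and every replicate at or above 60%; inconclusive = mean or all-replicate condition met, but not both; inactive = mean below 60% and not all replicates reaching 60%.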
# Assay: enhancers of HDL lipid transfer via mSR-BI – ldlA[mSR-BI] CHO cells, DiI fluorescence, primary screen (AID 504775);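 also: 0% = median plate neutral-control signal and 100% = twice that signal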
# Details: DiI-HDL uptake fluorescence, 3 h, at 12.5 µM, stronger effect = higher value, 100 = double the neutral-control signal
# Method in brief: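 Test system: SR-BI-overexpressing, LDLR-lacking CHO cells; Also added: labelled HDL, 10 µg/mL; Measured by: bottom-read cell fluorescence after medium removal, ex 550/em 595 nm; Timing: 3 h uptake period with compound, 37 °C; Buffer or medium: F12, 0.5% BSA, 25 mM HEPES; Doses: single compound concentration, delivered by pin transfer.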
row,Structure (SMILES),activation
1,O=C(N/N=C/c1cn(-c2cccs2)nc1-c1ccccc1)c1ccccc1Br,inactive: 3.8%
2,CCOC(=O)N1CCC(NC(=O)CSCc2nc(-c3ccccc3Cl)oc2C)CC1,inactive: -20.3%
3,CN(Cc1ccccc1)CC(O)COc1ccc(CNCc2ccc(Cl)s2)cc1 (centres undefined),inactive: 16.5%
4,Cc1cc(N2CCN(Cc3ccccc3)CC2)n2nc(C)c(-c3ccccc3)c2n1,inactive: -21%
5,CC(C)CC1NC(=O)N(CC(=O)Nc2ccc3c(c2)OCCO3)C1=O (centres undefined),inactive: -27%
6,Cc1ccc2nc3c(cc2c1)c(NC(=O)c1cccnc1)nn3C,inconclusive: 73.6%
7,C[C@@H]1COC(=O)[C@H](NC(=O)OCC2c3ccccc3-c3ccccc32)C/C=C\C[C@@H](CC(=O)N[C@H](CO)Cc2ccccc2)C(=O)N1,inactive: -80.6%
8,CC(C)(C)C1CCC(=NNC(=O)c2ccccc2-n2cccc2)CC1 (centres undefined),inconclusive: 121%
9,O=[N+]([O-])c1ccccc1/C=N/n1c(C(F)(F)F)n[nH]c1=S,inconclusive: 207%
10,CCOc1ccc(/C(O)=C2/C(=O)C(=O)N(CC3CCCO3)C2c2cccs2)cc1 (centres undefined),inactive: -3.64%
11,CSc1nc2sc3c(c2c2nncn12)CCC3,inconclusive: 60.1%
12,Cc1ccnc(NC(=S)NC(=O)c2ccco2)c1,active: 63.7%
13,CCOC(=O)N1CCN(C(=O)c2nn(C)c3c2CSc2ccccc2-3)CC1,inconclusive: 60.1%
14,Cc1ccc(Cn2c(SCC(=O)NCC3CCCO3)nc3ccsc3c2=O)cc1 (centres undefined),active: 60.4%
15,Cc1c(CNCCc2ccccc2Cl)c(C(=O)O)c(C)n1-c1ccccc1,active: 169%
16,CCOC(=O)N1CCN(C(=O)COc2ccccc2Cl)CC1,inconclusive: 65.4%
17,O=C(NCc1nc2ccccc2[nH]1)C1=C[C@@H](c2csc3ccccc23)C[C@@H](OCc2ccc(CO)cc2)O1,inconclusive: 103%
18,C=CCON/C(CCC)=C1\C(=O)CC(C)(C)CC1=NC,inconclusive: 81.1%
19,CCOc1ccc(N(CC(=O)N2CCN(c3ccccc3F)CC2)S(=O)(=O)c2c(C)noc2C)cc1,inconclusive: 259%
20,Cc1nnc(SCC(=O)N(Cc2ccccc2)C(C)(C)C)[nH]c1=O,inconclusive: 67.2%
21,O=C(COc1ccc(C(=O)c2ccccc2)cc1)NC1CCCCC1,active: 69.3%
22,COC(=O)[C@H](CC(C)C)NCc1cccc(CN[C@@H](CC(C)C)C(=O)OC)c1,inactive: 2.5%
23,CC(CC(=O)NCc1cccnc1)c1ccccc1 (centres undefined),inactive: 15.9%

row,Structure (SMILES),activation
1,COc1ccc(C(C)=O)cc1CC(=O)Nc1cccc(S(=O)(=O)N2CCOCC2)c1,inactive: -53.6%
2,Cc1ccc(CNC(=O)c2nccnc2C(=O)O)cc1,inconclusive: 105%
3,Cc1ccc(-c2nc3ncccn3c2Nc2ccc3c(c2)OCCO3)cc1,inconclusive: 255%
4,COc1ccc(C2OCC(C)(C)CO2)cc1OC,active: 76.8%
5,Nc1nnc(CCC2CCCCC2)s1,inconclusive: 166%
6,CCOc1ccc(NC(=O)CN(C)C(=O)c2cccnc2Sc2ccc(Cl)cc2)cc1OCC,active: 81.9%
7,CCOC(=O)/C(=N\Nc1ccc(Cl)cc1)Sc1nnc(-c2ccc(OC)cc2)n1C,inconclusive: 60.1%
8,COc1cc(CN2CCC(C(=O)NC3CCCC3)CC2)ccc1O,inconclusive: 60.8%
9,CCCCNC(=O)N(O)C1N(/N=C/c2ccccc2OC)C(=S)SC1(C)C (centres undefined),inconclusive: 96.3%
10,COc1cc(CNCCc2ccccc2)ccc1OCC(N)=O,active: 63.7%
11,CCOC(=O)N1CCN(C(=S)NC(=O)c2cncc(Br)c2)CC1,active: 68.6%
12,COc1ccc(S(=O)(=O)N2CCC(O)(c3ccc(Cl)cc3)CC2)cc1,inactive: -5.39%
13,CCN(CC(=O)Nc1c(F)cccc1F)C(=O)C1CCN(S(=O)(=O)c2ccccc2C(=O)OC)CC1,inconclusive: 135%
14,O=C(Nc1c(F)cc(F)cc1Br)c1cc(-c2ccccc2)on1,inconclusive: 292%
15,CC1=C(C(=O)c2ccccc2)C(c2cccc([N+](=O)[O-])c2)NC(=S)N1 (centres undefined),inactive: -68.4%
16,Cc1onc(-c2ccccc2Cl)c1C(=O)Nc1cnn(Cc2ccccc2)c1,inconclusive: 88.3%
17,N#Cc1nc(COc2ccc(Cl)cc2Cl)oc1N1CCN(c2ccccc2)CC1,active: 118%
18,NC(=O)C1CCCN(S(=O)(=O)c2ccc3ccccc3c2)C1 (centres undefined),inactive: 22.3%
19,Nc1nc(CSC(=S)N2CCCCC2)nc(Nc2ccccc2)n1,inactive: -1.1%
20,COc1ccc(S(=O)(=O)Nc2ccc(S(=O)(=O)N3CCCCC3)cc2)cc1,inconclusive: 129%
21,Clc1ccc(-c2ccc(C=Nc3ccc(N4CCOCC4)cc3)o2)c(Cl)c1,inconclusive: 97.2%
22,Cc1cc(OC(C)C(=O)NCC(O)c2ccccc2)c2c(C)c(C)c(=O)oc2c1 (centres undefined),inconclusive: 180%
23,Cc1ccc(NC(=O)CSc2nc3nc(C)c(Br)cc3[nH]2)cc1F,inactive: -0.727%

row,Structure (SMILES),activation
1,COc1ccc(N2CCN(C(=O)CCS(=O)(=O)c3ccc4c(c3)CCN4C(=O)C3CC3)CC2)cc1,inactive: -7.15%
2,COc1ccccc1C(=O)Nc1nnc(C)s1,inconclusive: 78.7%
3,COC(=O)c1ccccc1NC(=O)Cn1cnc2c1c(=O)n(C)c(=O)n2C,inconclusive: 169%
4,COc1ccc(N(CC(O)Cn2cnc3ccccc32)S(=O)(=O)c2ccc(C)cc2)cc1 (centres undefined),inconclusive: 271%
5,COc1ccc(OC)c(/C=N/N2CCN(c3ccc(Cl)cc3)CC2)c1,active: 148%
6,COc1ccc(Cl)cc1NC(=O)c1cc(-c2ccco2)on1,inconclusive: 111%
7,CSCCNC(=O)Nc1c(-c2c(Cl)cccc2Cl)noc1C,active: 142%
8,O=C(C1CCCN1S(=O)(=O)c1ccc(Cl)cc1)N1CCCCC1 (centres undefined),inactive: 4.62%
9,CSc1nnc(Cc2cc(=O)[nH]c(=O)[nH]2)n1-c1cc(C)ccc1C,active: 70%
10,O=C(Nc1ccc(Oc2ccccc2)cc1)c1cnc2n(c1=O)CCS2,inconclusive: 114%
11,Cc1ccc(NC(=O)CN(C)C(=O)c2ccc3[nH]c4c(c3c2)CC(C)CC4)cc1 (centres undefined),inactive: -14.1%
12,COc1ccc(N(CC(=O)NCC2CCCO2)S(=O)(=O)c2c(C)noc2C)cc1 (centres undefined),inconclusive: 64.6%
13,Oc1ccccc1-c1n[nH]c(=S)n1Cc1ccccc1,inconclusive: 64.9%
14,COc1ccc(NC(=O)N(C)C[C@H]2Oc3c(NC(=O)c4ccncc4)cccc3C(=O)N([C@H](C)CO)C[C@@H]2C)cc1,inconclusive: 61%
15,C#CCOc1ccc(/C=N/O)cc1Cl,active: 84.2%
16,Cc1csc(=O)n1CCC(=O)OCC(=O)Nc1ccc(Cl)cn1,inconclusive: 66.7%
17,O=C(N/N=C/c1cccnc1)c1cc(-c2ccc(Cl)cc2)nc2ccccc12,inactive: -45.6%
18,O=C(CN1CCN(S(=O)(=O)c2cccc(F)c2)CC1)Nc1ccnn1C1CCCC1,inconclusive: 137%
19,COc1ccc(C(C(=O)NC2CCCC2)N(C(=O)c2ccoc2C)c2ccc(C)c(C)c2)cc1 (centres undefined),inactive: 6.42%
20,CCOC(=O)c1c(NC(=O)C2C3C=CC(C3)C2(C)C(=O)O)sc2c1CCCC2 (centres undefined),inconclusive: 60.6%
21,Cc1cccc(NC(=S)NNC(=O)Cc2ccccc2)c1,active: 211%
22,Cc1cc(=O)oc2c1ccc1oc(/C(=N/O)c3ccccc3)c(C)c12,active: 516%
23,Cc1nc2c3ccccc3nc(NNC(=O)CCC(=O)NCCC(C)C)n2n1,inconclusive: 190%

# Part of the list above in order of SMILES length, low to high:
row,Structure (SMILES),activation
5,COc1ccc(OC)c(/C=N/N2CCN(c3ccc(Cl)cc3)CC2)c1,active: 148%
17,O=C(N/N=C/c1cccnc1)c1cc(-c2ccc(Cl)cc2)nc2ccccc12,inactive: -45.6%
20,CCOC(=O)c1c(NC(=O)C2C3C=CC(C3)C2(C)C(=O)O)sc2c1CCCC2 (centres undefined),inconclusive: 60.6%

# The listing continues:

row,Structure (SMILES),activation
1,CCC(=O)Nc1ccc(NC(=O)CSc2nnnn2CC)cc1C,inconclusive: 163%
2,Cc1cc(S(=O)(=O)Nc2ccc3c(c2)n(C)c(=O)n3C)ccc1F,inconclusive: 165%
3,CN1CCN(CCCN2c3ccccc3Sc3ccc(C(F)(F)F)cc32)CC1,inconclusive: 238%
4,O=C(CC1N=C2c3ccccc3N=C(SCc3ccccc3Cl)N2C1=O)NCc1ccco1 (centres undefined),inconclusive: 202%
5,COc1ccc(N2CCN(C(CNS(=O)(=O)c3ccc4c(c3)OCCO4)c3ccco3)CC2)cc1 (centres undefined),inconclusive: 63.4%
6,COc1ccc2cc(CN(CC3COCCO3)S(=O)(=O)c3ccc(Cl)cc3)c(=O)[nH]c2c1 (centres undefined),inconclusive: 284%
7,CC1(C)Oc2ccc3ccc(=O)oc3c2C(/C=N/O)=C1Cl,inconclusive: 254%
8,O=C(COC(=O)/C=C/c1cccc(Cl)c1)NCCc1ccc(Cl)cc1Cl,active: 83.3%
9,CN(C)c1ccc(C(CNS(=O)(=O)c2ccc3ccccc3c2)N2CCOCC2)cc1 (centres undefined),inconclusive: 64.8%
10,COc1ccc(-c2nc(CCNS(=O)(=O)c3ccc4c(c3)OCCO4)cs2)cc1,inconclusive: 129%
11,COc1ccccc1/C=N/Nc1cc(N(C)C)nc(N(C)C)n1,inactive: -31.5%
12,COc1cccc(N2C(=O)C3C(C2=O)C2C=CC3C23CC3)c1 (centres undefined),inconclusive: 230%
13,NNC(=O)c1ccc(CSc2cccc3cccnc23)cc1,inactive: -34%
14,Cc1ccc(N2CCN(/N=C/C(Cl)=C/c3ccccc3)CC2)cc1,inconclusive: 201%
15,COc1cccc(CN2CCNC(=O)C2CC(=O)NC2CCCCCCC2)c1 (centres undefined),inactive: 0.714%
16,O=C(COc1ncnc2cc([N+](=O)[O-])ccc12)NC(=O)NC1CCCCC1,inconclusive: 305%
17,O=C(CNC(=O)c1ccccc1F)Nc1ccc2c(c1)OCO2,inconclusive: 88.1%
18,CN(C(=O)COC(=O)c1ccc(C#N)cc1)c1ccccc1,inconclusive: 246%
19,CC(C)(C)c1ccc2c(c1)C(c1ccc3c(c1)OCO3)CC(=O)O2 (centres undefined),inconclusive: 350%
20,CC[N+]1(C)CCC(=C2c3ccccc3CC(=O)c3sccc32)CC1 (centres undefined),inconclusive: 136%
